In publication PMC10352133 one finds binding data, which are given here for 1 molecule.

No constants are given. Whether binding was seen depends on the method and setting.

In this assay the target is T1, isoform b of human synaptogyrin 1 (human), O43759.
T1 chain: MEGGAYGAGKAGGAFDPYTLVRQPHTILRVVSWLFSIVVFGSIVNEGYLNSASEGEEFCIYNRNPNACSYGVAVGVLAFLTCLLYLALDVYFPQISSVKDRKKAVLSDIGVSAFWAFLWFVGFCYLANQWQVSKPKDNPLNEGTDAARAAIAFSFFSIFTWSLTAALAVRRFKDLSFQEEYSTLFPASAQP
The experiment in a line: NMR transverse relaxation (1H spin-spin echo, T2 of amide protons); 0.1-0.3 mM synaptogyrin in 20 mM sodium phosphate, pH 8.0, 150 mM NaCl, 1 mM TCEP, 0.1% UDM (or 0.005% NG310 or 0.03% DDM), 40 °C; molecular weight of the protein/detergent assembly estimated from T2; both purified. The following applies: remark: other sources report otherwise.

B1: isoform b of human synaptogyrin 1, O43759-2 1-191 (protein)
chain: T1 chain
On to B1, for which the binding entry was “no binding (tested: 0.1-0.3 mM)”.
